Assay results taken from ChEMBL document CHEMBL1687827, “Profiling the Aspergillus fumigatus proteome in response to caspofungin” (2011).
This continues a long series; more values of the same kind are listed elsewhere.

What was measured:
Format in all cases: functional
[1] = tested on: Aspergillus fumigatus; assay: Induction of change in heat shock protein Hsp98/Hsp104/ClpA, putative protein level in iTRAQ121 labelled cell wall fraction of drug-susceptible Aspergillus fumigatus KU80 delta-akuB at 0.12 ug/ml after 48 hrs in YPD medium by MS (MS/MS) analysis relative to control
[2] = tested on: Aspergillus fumigatus; assay: Induction of change in CipC-like antibiotic response protein, putative protein level in iTRAQ-116 labelled secreted fraction of drug-susceptible Aspergillus fumigatus KU80 delta-akuB at 0.12 ug/ml after 48 hrs in YPD medium by MS (MS/MS) analysis relative to control
[3] = tested on: Aspergillus fumigatus; assay: Induction of change in Ribosomal L15 gene expression in drug-susceptible Aspergillus fumigatus KU80 delta-akuB at 0.12 ug/ml after 24 hrs in YPD medium by microarray analysis relative to control
[4] = tested on: Aspergillus fumigatus; assay: Induction of change in outer mitochondrial membrane protein porin gene expression in drug-susceptible Aspergillus fumigatus KU80 delta-akuB at 0.12 ug/ml after 48 hrs in YPD medium by microarray analysis relative to control
[5] = tested on: Aspergillus fumigatus; assay: Induction of change in 60S ribosomal protein L1 protein level in iTRAQ114 labelled secreted fraction of drug-susceptible Aspergillus fumigatus KU80 delta-akuB at 0.12 ug/ml after 24 hrs in YPD medium by MS (MS/MS) analysis relative to control
[6] = tested on: Aspergillus fumigatus; assay: Induction of change in 60S ribosomal protein L9 b protein level in iTRAQ114 labelled secreted fraction of drug-susceptible Aspergillus fumigatus KU80 delta-akuB at 0.12 ug/ml after 24 hrs in YPD medium by MS (MS/MS) analysis relative to control
[7] = tested on: Aspergillus fumigatus; assay: Induction of change in cobalamin-independent methionine synthase MetH/D protein level in iTRAQ-116 labelled secreted fraction of drug-susceptible Aspergillus fumigatus KU80 delta-akuB at 0.12 ug/ml after 48 hrs in YPD medium by MS (MS/MS) analysis relative to control
[8] = tested on: Aspergillus fumigatus; assay: Induction of change in GNAT family acetyltransferase, putative protein level in iTRAQ-116 labelled secreted fraction of drug-susceptible Aspergillus fumigatus KU80 delta-akuB at 0.12 ug/ml after 48 hrs in YPD medium by MS (MS/MS) analysis relative to control
[9] = tested on: Aspergillus fumigatus; assay: Induction of change in integral membrane gene expression in drug-susceptible Aspergillus fumigatus KU80 delta-akuB at 0.12 ug/ml after 24 hrs in YPD medium by microarray analysis relative to control
[10] = tested on: Aspergillus fumigatus; assay: Induction of change in ribosomal S30/ubiquitin fusion gene expression in drug-susceptible Aspergillus fumigatus KU80 delta-akuB at 0.12 ug/ml after 24 hrs in YPD medium by microarray analysis relative to control
[11] = tested on: Aspergillus fumigatus; assay: Induction of change in Iron-sulfur cluster assembly accessory protein subfamily, putative gene expression in drug-susceptible Aspergillus fumigatus KU80 delta-akuB at 0.12 ug/ml after 24 hrs in YPD medium by microarray analysis relative to control
[12] = tested on: Aspergillus fumigatus; assay: Induction of change in large subunit ribosomal protein L3 protein level in iTRAQ114 labelled cell wall fraction of drug-susceptible Aspergillus fumigatus KU80 delta-akuB at 0.12 ug/ml after 24 hrs in YPD medium by MS (MS/MS) analysis relative to control
[13] = tested on: Aspergillus fumigatus; assay: Induction of change in 60s ribosomal protein l21 protein level in iTRAQ114 labelled cell wall fraction of drug-susceptible Aspergillus fumigatus KU80 delta-akuB at 0.12 ug/ml after 24 hrs in YPD medium by MS (MS/MS) analysis relative to control
[14] = tested on: Aspergillus fumigatus; assay: Induction of change in Ribosomal L28e protein family protein level in iTRAQ114 labelled cell wall fraction of drug-susceptible Aspergillus fumigatus KU80 delta-akuB at 0.12 ug/ml after 24 hrs in YPD medium by MS (MS/MS) analysis relative to control
[15] = tested on: Aspergillus fumigatus; assay: Induction of change in neutral amino acid permease gene expression in drug-susceptible Aspergillus fumigatus KU80 delta-akuB at 0.12 ug/ml after 48 hrs in YPD medium by microarray analysis relative to control
[16] = tested on: Aspergillus fumigatus; assay: Induction of change in vip1 gene expression in drug-susceptible Aspergillus fumigatus KU80 delta-akuB at 0.12 ug/ml after 48 hrs in YPD medium by microarray analysis relative to control
[17] = tested on: Aspergillus fumigatus; assay: Induction of change in CFEM domain protein, putative gene expression in drug-susceptible Aspergillus fumigatus KU80 delta-akuB at 0.12 ug/ml after 48 hrs in YPD medium by microarray analysis relative to control
[18] = tested on: Aspergillus fumigatus; assay: Induction of change in nuclear transport factor NTF-2, putative protein level in iTRAQ114 labelled secreted fraction of drug-resistant Aspergillus fumigatus EMFR-S678P at 0.12 ug/ml after 24 hrs in YPD medium by MS (MS/MS) analysis relative to control
[19] = tested on: Aspergillus fumigatus; assay: Induction of change in ubiquinol-cytochrome C reductase complex core protein 2, putative protein level in iTRAQ-118 labelled cell wall fraction of drug-resistant Aspergillus fumigatus EMFR-S678P at 0.12 ug/ml after 24 hrs in YPD medium by MS (MS/MS) analysis relative to control
[20] = tested on: Aspergillus fumigatus; assay: Induction of change in thioredoxin protein level in iTRAQ-118 labelled cell wall fraction of drug-resistant Aspergillus fumigatus EMFR-S678P at 0.12 ug/ml after 24 hrs in YPD medium by MS (MS/MS) analysis relative to control
[21] = tested on: Aspergillus fumigatus; assay: Induction of change in 4-hydroxyphenylpyruvate dioxygenase, putative protein level in iTRAQ-116 labelled secreted fraction of drug-resistant Aspergillus fumigatus EMFR-S678P at 0.12 ug/ml after 48 hrs in YPD medium by MS (MS/MS) analysis relative to control
[22] = tested on: Aspergillus fumigatus; assay: Induction of change in Hsp90 binding co-chaperone (Sba1), putative protein level in iTRAQ-116 labelled secreted fraction of drug-resistant Aspergillus fumigatus EMFR-S678P at 0.12 ug/ml after 48 hrs in YPD medium by MS (MS/MS) analysis relative to control
[23] = tested on: Aspergillus fumigatus; assay: Induction of change in 40S ribosomal protein S9 protein level in iTRAQ114 labelled cell wall fraction of drug-susceptible Aspergillus fumigatus KU80 delta-akuB at 0.12 ug/ml after 24 hrs in YPD medium by MS (MS/MS) analysis relative to control
[24] = tested on: Aspergillus fumigatus; assay: Induction of change in 40S ribosomal protein S10b protein level in iTRAQ114 labelled cell wall fraction of drug-susceptible Aspergillus fumigatus KU80 delta-akuB at 0.12 ug/ml after 24 hrs in YPD medium by MS (MS/MS) analysis relative to control
[25] = tested on: Aspergillus fumigatus; assay: Induction of change in IgE-binding protein level in iTRAQ114 labelled secreted fraction of drug-susceptible Aspergillus fumigatus KU80 delta-akuB at 0.12 ug/ml after 24 hrs in YPD medium by MS (MS/MS) analysis relative to control
[26] = tested on: Aspergillus fumigatus; assay: Induction of change in hypothetical protein level in iTRAQ114 labelled secreted fraction of drug-susceptible Aspergillus fumigatus KU80 delta-akuB at 0.12 ug/ml after 24 hrs in YPD medium by MS (MS/MS) analysis relative to control

CC[C@H](C)C[C@H](C)CCCCCCCCC(=O)N[C@H]1C[C@@H](O)[C@@H](NCCN)NC(=O)[C@@H]2[C@@H](O)CCN2C(=O)[C@H]([C@H](O)CCN)NC(=O)[C@H]([C@H](O)[C@@H](O)c2ccc(O)cc2)NC(=O)[C@@H]2C[C@@H](O)CN2C(=O)[C@H]([C@@H](C)O)NC1=O [CASPOFUNGIN]
fold change (FC) [1]: -2.6 | fold change (FC) [2]: -3 | fold change (FC) [3]: 4.4 | fold change (FC) [4]: -2.6 | fold change (FC) [5]: -1.2 | fold change (FC) [6]: -1 | fold change (FC) [7]: -2.1 | fold change (FC) [8]: -2 | fold change (FC) [9]: -4.6 | fold change (FC) [10]: 3.8 | fold change (FC) [11]: 4.2 | fold change (FC) [12]: 2 | fold change (FC) [13]: 1.6 | fold change (FC) [14]: 1.3 | fold change (FC) [15]: -3.3 | fold change (FC) [16]: -2.2 | fold change (FC) [17]: -2.1 | fold change (FC) [18]: 1.87 | fold change (FC) [19]: -1.15 | fold change (FC) [20]: 1.15 | fold change (FC) [21]: -1.07 | fold change (FC) [22]: 1.15 | fold change (FC) [23]: 2 | fold change (FC) [24]: 2.3 | fold change (FC) [25]: -2.8 | fold change (FC) [26]: -2.3
